# According to PubChem BioAssay AID504327 (National Center for Advancing Translational Sciences (NCATS), 2011):
# Chains of the proteins cited; added tags and fusions are not shown.
# UniProt Q92830, whole entry, looked up: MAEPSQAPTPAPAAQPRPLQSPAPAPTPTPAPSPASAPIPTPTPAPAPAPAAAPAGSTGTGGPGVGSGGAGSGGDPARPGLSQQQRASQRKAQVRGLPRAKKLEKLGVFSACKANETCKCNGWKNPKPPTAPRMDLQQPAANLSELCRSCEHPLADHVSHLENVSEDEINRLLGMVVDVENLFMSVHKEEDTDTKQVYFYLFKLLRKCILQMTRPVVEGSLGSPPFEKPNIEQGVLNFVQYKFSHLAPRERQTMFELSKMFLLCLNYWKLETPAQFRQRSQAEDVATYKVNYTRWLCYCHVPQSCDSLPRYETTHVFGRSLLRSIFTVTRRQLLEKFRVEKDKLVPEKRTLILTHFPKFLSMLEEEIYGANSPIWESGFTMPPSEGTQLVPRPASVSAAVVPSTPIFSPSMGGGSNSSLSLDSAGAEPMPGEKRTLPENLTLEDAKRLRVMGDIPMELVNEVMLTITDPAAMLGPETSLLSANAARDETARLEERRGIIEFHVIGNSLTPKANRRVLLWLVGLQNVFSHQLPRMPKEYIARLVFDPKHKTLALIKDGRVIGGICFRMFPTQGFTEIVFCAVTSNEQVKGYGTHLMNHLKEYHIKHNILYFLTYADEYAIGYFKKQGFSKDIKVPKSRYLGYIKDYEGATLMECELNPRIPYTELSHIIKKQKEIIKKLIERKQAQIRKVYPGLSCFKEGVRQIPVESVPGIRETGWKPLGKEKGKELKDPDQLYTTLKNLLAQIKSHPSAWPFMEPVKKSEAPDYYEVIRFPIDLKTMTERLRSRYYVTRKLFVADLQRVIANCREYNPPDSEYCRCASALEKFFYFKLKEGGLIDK
# About 820 (0.21%) of roughly 390,000 compounds were called active. Inconclusive results, whose numbers are uncertain, are shown with a selection of clear calls. Calls follow the shape of the dose curve; as a rule, active = well fitted inhibition curve with a large enough effect; inconclusive = small, poorly fitted or top-dose-only effect, or another doubt; inactive = no such curve, though single readings can be large or run the other way. Potencies of inconclusive entries are doubtful fits and often do not repeat.
# Target: Histone acetyltransferase KAT2A (Homo sapiens) (UniProt Q92830)
# Assay: qHTS Assay for Inhibitors of GCN5L2
# Settings: GCN5L2 HAT assay, ThioGlo1 CoA-SH fluorescence; series mostly up to 58.9 µM
# Method in brief: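 Compounds, pin-transferred from DMSO stocks, meet 20nM GCN5L2 for 15 min before the reaction begins with H3(1-25) peptide (75uM) and acetyl-CoA (70uM). Thiol-reactive ThioGlo1 reports CoA release over 20 min at room temperature.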
# Potency is read from the fitted curve at half-maximal effect.
row,Compound,Potency
1,CCC(C)NC(=O)c1ccccc1NC(=O)CN(c1cc(C)ccc1OC)S(C)(=O)=O (stereo not given),"inconclusive: 7.94 µM [inhibitor, partial curve, poor fit]"
2,CC(C)c1ccc2c(c1)C(c1cccs1)=NNC(c1ccncc1)=N2,"inconclusive: 5.01 µM [inhibitor, single point]"
3,COc1cccc(-c2nn(C)c3sc(C(=O)Nc4ccc5c(c4)OCCO5)cc23)c1,"inconclusive: 25.1 µM [inhibitor, single point]"
4,Cc1ccc2c(c1)-c1[nH]c(=S)ncc1CS2,"inconclusive: 31.6 µM [inhibitor, partial curve]"
5,CC(CCC(=O)O)(c1ccc(O)cc1)c1ccc(O)cc1,"inconclusive: 15.8 µM [inhibitor, partial curve]"
6,O=[N+]([O-])c1ccc(COc2ccc(-c3[nH]ncc3-c3ccc(Cl)cc3)c(O)c2)cc1,"inconclusive: 1 µM [inhibitor, single point]"
7,Cc1ccc(C(=O)/C=C/c2ccc(-c3ccc(C)cc3)o2)cc1,inactive
8,Cc1ccc(N(C(C)C(=O)N2CCCC2)S(C)(=O)=O)cc1 (stereo not given),"inconclusive: 7.08 µM [inhibitor, single point]"
9,O=C(NNC(=O)c1ccccc1F)c1cccc(-n2cccc2)c1,"inconclusive: 11.2 µM [inhibitor, partial curve]"
10,COc1ccc(-c2nc(C#N)c(N3CCC(C)CC3)o2)cc1,inactive
11,CCOc1ccccc1NC(=O)Cn1c(=O)n(Cc2ccco2)c(=O)c2ccc(C(=O)NC3CCCC3)cc21,inactive
12,Cc1ccc2nc(-c3cc(-c4ccccc4)no3)cn2c1,inactive
13,O=S(=O)(NC1CCCCC1)c1ccc(N2CCOCC2)nc1,"inconclusive: 39.8 µM [inhibitor, single point]"
14,Cc1cccc(CN2CCN(C(c3ccccc3)c3ccc(Cl)cc3)CC2)c1 (stereo not given),"inconclusive: 22.4 µM [inhibitor, single point]"
15,O=C(Nc1ccc(Cl)cc1[N+](=O)[O-])c1ccc2c(c1)OCCO2,"inconclusive: 2.51 µM [inhibitor, partial curve]"
16,N#CCOc1coc(CN2CCN(c3cccc(Cl)c3)CC2)cc1=O,"inconclusive: 0.708 µM [inhibitor, full curve, poor fit]"
17,Cc1ccc(-c2n[nH]c(S(C)(=O)=O)c2C#N)cc1,"inconclusive: 0.794 µM [inhibitor, single point]"
18,COc1ccc(OCCn2nnc3sc4c(c3c2=O)CCCC4)cc1,"inconclusive: 25.1 µM [inhibitor, single point]"
19,COc1ccc(Nc2nc(NN)nc(Nc3ccc(OC)cc3)n2)cc1,"inconclusive: 39.8 µM [inhibitor, single point]"
20,COc1ccc(NC(=O)CSc2n[nH]c(N)n2)cc1OC,inactive
21,CC(=O)/C(C[N+]1(C)CCCCC1)=N\O,inactive
22,CCCCn1nc(C(=O)Oc2ccc3c(C)cc(=O)oc3c2)c2ccccc2c1=O,"inconclusive: 31.6 µM [inhibitor, single point]"
23,COc1ccc(-c2c(C)c3ccc(O)c(CN4CCCC4)c3oc2=O)cc1,"inconclusive: 17.8 µM [inhibitor, partial curve]"
24,CCc1c(CN2CCN(c3ccccc3F)CC2)csc1C,inactive

# Compounds listed so far containing a nitro group on carbon (2):
row,Compound,Potency
6,O=[N+]([O-])c1ccc(COc2ccc(-c3[nH]ncc3-c3ccc(Cl)cc3)c(O)c2)cc1,"inconclusive: 1 µM [inhibitor, single point]"
15,O=C(Nc1ccc(Cl)cc1[N+](=O)[O-])c1ccc2c(c1)OCCO2,"inconclusive: 2.51 µM [inhibitor, partial curve]"

# Of the compounds above, 3 contain a cyano group:
row,Compound,Potency
10,COc1ccc(-c2nc(C#N)c(N3CCC(C)CC3)o2)cc1,inactive
16,N#CCOc1coc(CN2CCN(c3cccc(Cl)c3)CC2)cc1=O,"inconclusive: 0.708 µM [inhibitor, full curve, poor fit]"
17,Cc1ccc(-c2n[nH]c(S(C)(=O)=O)c2C#N)cc1,"inconclusive: 0.794 µM [inhibitor, single point]"

# Continued:

row,Compound,Potency
1,CC(C)(C)NC(=O)CSc1ncnc2c1nnn2Cc1ccccc1Cl,inactive
2,CC12CCC(C(=O)NC3CCCCC3)([C@H](Br)C1=O)C2(C)C (stereo not given in full),inactive
3,COC(=O)CC(N)c1ccc(OC)c2ccccc12 (stereo not given),"inconclusive: 5.62 µM [inhibitor, single point]"
4,COc1cccc2cc(-c3nc4ccccc4[nH]3)c(=O)oc12,"inconclusive: 0.112 µM [inhibitor, full curve, poor fit]"
5,CCN(CC)C(=O)c1ccc(COc2ccccc2Cl)o1,inactive
6,COc1ccc(C(O)(CCc2ccccc2)CCN2CCCCC2)cc1 (stereo not given),inactive
7,CCN(CC)c1ccc(-n2nc3cc(C)c(NC(=O)c4ccccc4C)cc3n2)c(C)c1,"inconclusive: 35.5 µM [inhibitor, single point]"
8,CCOC(=O)C1(CCOc2ccccc2)CCN(CC=C(C)C)CC1,inactive
9,Cn1c(=O)n(C)c2cc(S(=O)(=O)O)ccc21,"inconclusive: 5.01 µM [inhibitor, single point]"
10,CC(C)=Cc1c(O)nc2ccccn2c1=O,"inconclusive: 3.98 µM [inhibitor, single point]"
11,Cc1[nH]n(-c2ncc(-c3ccccc3)s2)c(=O)c1C(c1ccc(Br)cc1)C(C#N)C#N (stereo not given),"inconclusive: 31.6 µM [inhibitor, single point]"
12,COC(C(=O)NNS(=O)(=O)c1ccccc1[N+](=O)[O-])c1ccccc1 (stereo not given),"inconclusive: 1 µM [inhibitor, full curve, poor fit]"
13,Cc1cc(N2CCN(C)CC2)nc2ccc(NC(=S)N3CCCCC3)cc12,"inconclusive: 25.1 µM [inhibitor, partial curve, poor fit]"
14,CC1=C(C#N)c2nc(N)c(C#N)c(C)c2/C1=C\c1ccc(C)cc1,"inconclusive: 20 µM [inhibitor, partial curve]"
15,O=C(CCCOc1ccc(Cl)cc1)Nc1ccc(N2CCOCC2)cc1,"inconclusive: 39.8 µM [inhibitor, single point]"
16,Cc1cc(C)n2nc(SCc3c(F)cccc3Cl)nc2n1,"inconclusive: 10 µM [inhibitor, partial curve]"
17,CCOC(=O)c1c(C)[nH]c(C(=O)COC(=O)C(C)N2C(=O)C3CCCCC3C2=O)c1C (stereo not given),inactive
18,C=C1c2cccc(OC)c2O[C@H](C(=O)OCC)[C@@H]1CCCCCC,"inconclusive: 31.6 µM [inhibitor, single point]"
19,CNc1cccccc1=S,"inconclusive: 28.2 µM [inhibitor, single point]"
20,CCOP(=O)(OCC)c1nc(Cc2ccccc2)oc1NCc1ccccc1,"inconclusive: 39.8 µM [inhibitor, single point]"
21,CCCC(C)NC(=O)CN1C(=O)c2cccc3cccc1c23 (stereo not given),"inconclusive: 8.91 µM [inhibitor, single point]"
22,Cc1ccc(S(=O)(=O)CCC(=O)Nc2cc(Cl)ccc2-n2cncn2)cc1,"inconclusive: 39.8 µM [inhibitor, single point]"
23,Cc1ccccc1CN1[C@@H](CC2CCCCC2)COCCS1(=O)=O,inactive
24,Cc1ccc(-c2cc(-c3ccccc3O)nc(N/N=C/c3cccnc3)n2)cc1,"inconclusive: 6.31 µM [inhibitor, single point]"

row,Compound,Potency
1,Cc1ccc(-c2cc(C(=O)Nc3ccccc3C)c3ccccc3n2)o1,"inconclusive: 28.2 µM [inhibitor, single point]"
2,Nc1c(C(=O)NCc2ccc(Cl)cc2)sc2nc(-c3ccc(F)cc3)ccc12,"inconclusive: 28.2 µM [inhibitor, single point]"
3,COc1ccc(C(=O)N2CCN(CC(=O)N3CCOCC3)CC2)cc1,"inconclusive: 7.08 µM [inhibitor, single point]"
4,O=C(CN1CCN(c2ccccc2F)CC1)NC(=O)NCc1ccco1,"inconclusive: 25.1 µM [inhibitor, single point]"
5,CC(C)NC(=O)Cn1cc(C(=O)C2CC2)c2ccccc21,inactive
6,CN(C)S(=O)(=O)N1CCN(c2ccc([N+](=O)[O-])c(N3CCCCC3)c2)CC1,inactive
7,CCc1ccc(NC(=O)C(C)OC(=O)c2ccc(NS(=O)(=O)c3ccc(C)c([N+](=O)[O-])c3)cc2)cc1 (stereo not given),inactive
8,CCOC(=O)C1CCCN(C(=O)Cn2sc3nc(C)cc(C)c3c2=O)C1 (stereo not given),"inconclusive: 56.2 µM [inhibitor, partial curve, poor fit]"
9,Cc1c(C(=O)N/N=C/c2ccc(N(C)C)cc2)[nH]c2ccc(Cl)cc12,inactive
10,COC(=O)c1cc(S(=O)(=O)NCCN2CCN(c3ccccc3F)CC2)c[nH]1,inactive
11,O=c1cc(N2CCCCC2)c(-c2ccccc2)nn1Cc1c(Cl)cccc1Cl,"inconclusive: 44.7 µM [inhibitor, single point]"
12,Cc1cccc(C(=O)N2CCN(C(=O)c3cccc(C)c3)C(C)C2)c1 (stereo not given),"inconclusive: 3.55 µM [inhibitor, single point]"
13,O=C(Cn1cnc([N+](=O)[O-])c1)NCCc1ccccc1,inactive
14,O=c1[nH]n2c(=O)c3c([nH]c2c1N=Nc1cccc(Cl)c1)CCCC3,"inconclusive: 39.8 µM [inhibitor, single point]"
15,O=C1C=CC(=O)N1c1ccc(Sc2ccc([N+](=O)[O-])cc2)cc1,"inconclusive: 31.6 µM [inhibitor, single point]"
16,Cc1noc(C)c1-c1nccc(NCc2cccs2)n1,inactive
17,O=c1c2c(-c3cccs3)csc2[nH]c(=S)n1-c1ccccc1,inactive
18,COCc1nnc(NC(=O)CCCCCN2C(=O)c3ccccc3C2=O)s1,"inconclusive: 15.8 µM [inhibitor, partial curve, poor fit]"
19,CC(C)C(=O)N1CCN(c2nc3ccc(Cl)cc3s2)CC1,"inconclusive: 8.91 µM [inhibitor, single point]"
20,Cc1ccc(NC(=O)CN2C(=O)N/C(=C/c3ccc(N4CCOCC4)cc3)C2=O)cc1,inactive
21,Cc1c(CC(=O)NCC(=O)N[C@H](Cc2ccccc2)C(=O)O)c(=O)oc2cc(O)ccc12,"inconclusive: 4.47 µM [inhibitor, single point]"
22,Cn1c(=O)c2c(nc(Cc3ccccc3)n2C)n(C)c1=O,"inconclusive: 0.794 µM [inhibitor, partial curve, poor fit]"
